Measurements published in patent publication US20110224159A1, “BIDESMOSIDIC BETULIN AND BETULINIC ACID DERIVATIVES AND USES THEREOF AS ANTITUMOR AGENTS” (Universite du Quebec a Chicoutime, priority 2008, published 2011).
Some entries share one result that the patent states for a list of compounds.

System: tested cancer cell lines (A549, DLD-1, MCF7, PC-3)
Test: Cytotoxicity assay (resazurin reduction, 48 h), summary over the tested cancer cell lines
Assay type: cell-based, human
Conditions: range or bound over the cell lines; read-out: IC50 against the tested cancer cell lines
Description: Human lung carcinoma (A549, ATCC # CCL-185™), human colorectal adenocarcinoma (DLD-1, ATCC # CCL-221™), human breast adenocarcinoma (MCF7, ATCC # HTB-22™), human prostate adenocarcinoma (PC-3, ATCC # CCL-1435™) and human normal skin fibroblasts (WS1, ATCC # CRL-1502™) cell lines were obtained from the American Type Culture Collection (ATCC). All cell lines were cultured in minimum essential medium containing Earle's salts and L-glutamine (Mediatech Cellgro, VA), to which were added 10% fetal bovine serum (Hyclone), vitamins (1×), penicillin (100 IU/mL) and streptomycin (100 μg/mL), essential amino acids (1×), and sodium pyruvate (1×) (Mediatech Cellgro, VA). […]
Exponentially growing cells were plated in 96-well microplates (Costar, Corning Inc.) at a density of 5×10^3 cells per well in 100 μL of culture medium and were allowed to adhere for 16 h before treatment. […] Cytotoxicity was assessed using resazurin (O'Brien, J. et al., 2000. Eur J Biochem 267(17): 5421-6) on an automated 96-well Fluoroskan Ascent F1™ plate reader (Labsystems) using excitation and emission wavelengths of 530 and 590 nm, respectively. Fluorescence was proportional to the cellular metabolic activity in each well. Survival percentage was defined as the fluorescence in experimental wells compared to that in control wells after subtraction of blank values. […] IC50 results are expressed as mean±standard deviation. […]

Question: Which IC50 does the source give for “28-O-β-D-Glucopyranosyl betulin 313-O-α-L-rhamnopyranoside [Compound 16b]” here?
Answer: 1.7 to 23 µM
